Assay results: the supplement of paper PMC12823440, “Inhibitors supercharge kinase turnover through native proteolytic circuits” (Nature, 2025)
Counter-ions that a name gives are not always drawn. Some of the results follow. The calls rarely recur for the same compound in another form.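 Kinases, fused to nanoluciferase, were expressed in K562 cells; luminescence was measured every 4 h from 2 to 18 h as percent of control (DMSO = 100%, positive control = 0%). A time point is decreased if signal falls significantly (2 sigma). Hits were called by the authors by a rule that is not shown; the count of time points alone does not decide it.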

Chains of the proteins cited; added tags and fusions are not shown. Lines headed by an entry give the natural chain unless they say otherwise; changes in a name come on top.
UniProt Q14289, whole entry, looked up: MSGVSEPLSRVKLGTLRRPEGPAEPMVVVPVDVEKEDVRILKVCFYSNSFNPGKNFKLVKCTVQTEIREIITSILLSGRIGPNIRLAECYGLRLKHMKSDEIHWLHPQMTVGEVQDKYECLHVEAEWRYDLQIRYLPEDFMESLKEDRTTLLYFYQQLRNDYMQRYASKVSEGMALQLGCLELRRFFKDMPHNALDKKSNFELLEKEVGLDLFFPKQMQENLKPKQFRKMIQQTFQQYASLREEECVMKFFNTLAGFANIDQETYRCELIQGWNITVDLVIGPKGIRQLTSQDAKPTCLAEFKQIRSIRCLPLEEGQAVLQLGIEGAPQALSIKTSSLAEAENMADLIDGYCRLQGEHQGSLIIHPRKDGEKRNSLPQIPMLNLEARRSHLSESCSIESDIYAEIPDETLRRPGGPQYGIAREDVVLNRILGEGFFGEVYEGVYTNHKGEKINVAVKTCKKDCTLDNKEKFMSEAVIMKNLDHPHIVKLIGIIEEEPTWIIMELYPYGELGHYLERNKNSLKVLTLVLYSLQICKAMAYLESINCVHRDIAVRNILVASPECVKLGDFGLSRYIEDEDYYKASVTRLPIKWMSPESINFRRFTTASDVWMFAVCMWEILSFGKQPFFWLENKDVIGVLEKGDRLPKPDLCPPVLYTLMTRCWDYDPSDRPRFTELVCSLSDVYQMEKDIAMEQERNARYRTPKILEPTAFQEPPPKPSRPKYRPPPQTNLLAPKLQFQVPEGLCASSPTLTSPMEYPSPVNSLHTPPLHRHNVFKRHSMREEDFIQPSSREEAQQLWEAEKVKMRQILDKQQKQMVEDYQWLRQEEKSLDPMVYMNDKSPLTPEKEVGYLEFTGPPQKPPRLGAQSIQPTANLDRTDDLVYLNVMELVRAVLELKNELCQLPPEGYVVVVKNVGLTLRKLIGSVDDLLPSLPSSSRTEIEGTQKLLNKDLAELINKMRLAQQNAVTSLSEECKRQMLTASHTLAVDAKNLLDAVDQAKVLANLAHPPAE
UniProt P07949, whole entry, looked up: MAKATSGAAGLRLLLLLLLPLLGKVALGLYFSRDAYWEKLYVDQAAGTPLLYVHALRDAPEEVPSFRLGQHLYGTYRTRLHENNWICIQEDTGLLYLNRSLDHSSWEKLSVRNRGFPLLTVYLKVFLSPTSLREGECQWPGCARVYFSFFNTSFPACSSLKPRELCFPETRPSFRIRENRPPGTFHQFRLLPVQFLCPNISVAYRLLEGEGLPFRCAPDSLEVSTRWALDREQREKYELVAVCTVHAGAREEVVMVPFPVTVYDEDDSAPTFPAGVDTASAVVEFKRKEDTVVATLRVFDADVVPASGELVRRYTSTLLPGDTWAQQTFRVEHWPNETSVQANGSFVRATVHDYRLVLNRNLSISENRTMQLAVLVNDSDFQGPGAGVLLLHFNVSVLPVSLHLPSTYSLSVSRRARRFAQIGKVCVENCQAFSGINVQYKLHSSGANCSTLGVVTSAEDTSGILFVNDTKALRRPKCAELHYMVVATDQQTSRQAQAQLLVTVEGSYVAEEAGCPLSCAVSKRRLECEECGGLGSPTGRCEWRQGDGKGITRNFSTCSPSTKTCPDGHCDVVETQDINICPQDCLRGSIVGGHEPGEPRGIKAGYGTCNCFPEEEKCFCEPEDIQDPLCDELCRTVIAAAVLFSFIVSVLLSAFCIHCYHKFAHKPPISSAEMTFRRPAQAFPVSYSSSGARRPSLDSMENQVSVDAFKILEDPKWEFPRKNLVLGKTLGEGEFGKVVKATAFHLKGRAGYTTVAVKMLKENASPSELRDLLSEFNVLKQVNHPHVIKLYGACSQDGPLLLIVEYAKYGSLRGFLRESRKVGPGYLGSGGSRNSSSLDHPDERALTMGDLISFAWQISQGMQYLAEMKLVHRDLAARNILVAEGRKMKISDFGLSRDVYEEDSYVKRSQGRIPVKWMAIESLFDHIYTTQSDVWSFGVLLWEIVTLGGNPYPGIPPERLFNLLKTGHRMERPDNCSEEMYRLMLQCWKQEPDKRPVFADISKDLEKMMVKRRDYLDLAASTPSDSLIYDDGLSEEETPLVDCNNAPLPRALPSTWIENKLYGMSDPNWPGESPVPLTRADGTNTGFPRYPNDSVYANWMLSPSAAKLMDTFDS
UniProt Q9BRS2: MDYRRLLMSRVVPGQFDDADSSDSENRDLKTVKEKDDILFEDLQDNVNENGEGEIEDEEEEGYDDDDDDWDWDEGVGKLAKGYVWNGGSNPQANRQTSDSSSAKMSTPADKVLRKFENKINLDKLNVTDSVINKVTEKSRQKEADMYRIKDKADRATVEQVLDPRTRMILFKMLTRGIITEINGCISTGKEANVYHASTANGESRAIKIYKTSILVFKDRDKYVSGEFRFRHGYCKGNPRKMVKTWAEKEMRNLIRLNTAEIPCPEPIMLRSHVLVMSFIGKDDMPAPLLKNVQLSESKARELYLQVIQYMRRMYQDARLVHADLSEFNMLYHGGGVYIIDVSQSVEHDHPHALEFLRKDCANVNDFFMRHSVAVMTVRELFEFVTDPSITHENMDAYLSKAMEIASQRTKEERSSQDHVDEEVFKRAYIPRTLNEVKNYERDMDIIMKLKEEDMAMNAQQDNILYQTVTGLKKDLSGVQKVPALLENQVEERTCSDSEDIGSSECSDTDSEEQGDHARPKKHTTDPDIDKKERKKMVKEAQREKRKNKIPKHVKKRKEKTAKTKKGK
UniProt Q13546: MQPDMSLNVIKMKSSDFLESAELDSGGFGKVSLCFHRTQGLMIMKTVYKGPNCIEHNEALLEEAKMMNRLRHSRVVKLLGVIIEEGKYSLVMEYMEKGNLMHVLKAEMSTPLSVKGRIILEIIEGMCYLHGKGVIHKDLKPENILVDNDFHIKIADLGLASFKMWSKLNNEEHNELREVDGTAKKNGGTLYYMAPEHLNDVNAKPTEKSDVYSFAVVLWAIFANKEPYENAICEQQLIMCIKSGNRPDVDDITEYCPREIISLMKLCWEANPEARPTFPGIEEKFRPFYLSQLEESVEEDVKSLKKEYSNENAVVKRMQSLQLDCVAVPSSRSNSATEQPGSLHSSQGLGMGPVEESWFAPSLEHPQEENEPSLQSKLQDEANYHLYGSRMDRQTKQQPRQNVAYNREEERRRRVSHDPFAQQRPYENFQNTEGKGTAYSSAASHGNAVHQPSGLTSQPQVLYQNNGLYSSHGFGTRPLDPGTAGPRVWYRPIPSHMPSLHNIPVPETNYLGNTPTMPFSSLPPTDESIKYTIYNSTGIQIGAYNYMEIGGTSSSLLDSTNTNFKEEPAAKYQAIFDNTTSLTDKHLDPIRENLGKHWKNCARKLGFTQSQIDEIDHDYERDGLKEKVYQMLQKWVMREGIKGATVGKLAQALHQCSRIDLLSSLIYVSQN
UniProt Q01974, whole entry: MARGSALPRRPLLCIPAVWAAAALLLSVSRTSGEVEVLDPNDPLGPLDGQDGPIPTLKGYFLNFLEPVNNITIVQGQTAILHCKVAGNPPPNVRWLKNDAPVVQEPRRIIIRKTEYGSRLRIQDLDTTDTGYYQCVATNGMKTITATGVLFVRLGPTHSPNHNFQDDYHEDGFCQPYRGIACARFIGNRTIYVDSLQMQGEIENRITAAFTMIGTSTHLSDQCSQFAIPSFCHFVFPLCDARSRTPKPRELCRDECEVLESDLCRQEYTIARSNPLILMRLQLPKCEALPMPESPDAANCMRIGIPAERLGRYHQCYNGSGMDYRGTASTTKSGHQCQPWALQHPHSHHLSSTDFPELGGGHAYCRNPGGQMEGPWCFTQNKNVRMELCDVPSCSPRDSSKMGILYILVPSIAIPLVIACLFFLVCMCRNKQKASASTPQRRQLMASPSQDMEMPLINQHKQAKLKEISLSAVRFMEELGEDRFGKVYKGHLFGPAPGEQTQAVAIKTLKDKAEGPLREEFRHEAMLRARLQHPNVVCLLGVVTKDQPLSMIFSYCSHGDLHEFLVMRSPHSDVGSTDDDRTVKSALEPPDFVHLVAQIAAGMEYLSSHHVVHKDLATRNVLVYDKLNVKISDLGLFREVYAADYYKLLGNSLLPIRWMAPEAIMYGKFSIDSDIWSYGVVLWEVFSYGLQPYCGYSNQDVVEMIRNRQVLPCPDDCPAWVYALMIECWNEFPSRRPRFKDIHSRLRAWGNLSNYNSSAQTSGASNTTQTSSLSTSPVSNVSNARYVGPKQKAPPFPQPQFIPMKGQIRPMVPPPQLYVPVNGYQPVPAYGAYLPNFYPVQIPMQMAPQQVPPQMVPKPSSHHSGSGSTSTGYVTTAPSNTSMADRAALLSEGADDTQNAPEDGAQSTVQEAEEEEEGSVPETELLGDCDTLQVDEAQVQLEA
UniProt Q15208: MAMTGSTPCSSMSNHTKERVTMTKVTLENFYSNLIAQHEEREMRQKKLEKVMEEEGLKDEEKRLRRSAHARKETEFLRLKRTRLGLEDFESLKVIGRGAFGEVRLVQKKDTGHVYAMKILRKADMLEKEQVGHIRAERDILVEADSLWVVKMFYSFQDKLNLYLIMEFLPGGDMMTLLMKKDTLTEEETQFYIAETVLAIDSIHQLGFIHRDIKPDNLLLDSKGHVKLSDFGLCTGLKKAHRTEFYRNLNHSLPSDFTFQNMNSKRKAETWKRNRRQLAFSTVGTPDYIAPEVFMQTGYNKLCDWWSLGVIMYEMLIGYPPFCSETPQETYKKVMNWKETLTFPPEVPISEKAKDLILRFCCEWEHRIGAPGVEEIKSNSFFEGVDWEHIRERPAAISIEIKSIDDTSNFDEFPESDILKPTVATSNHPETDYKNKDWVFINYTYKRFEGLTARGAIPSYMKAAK
UniProt P42680: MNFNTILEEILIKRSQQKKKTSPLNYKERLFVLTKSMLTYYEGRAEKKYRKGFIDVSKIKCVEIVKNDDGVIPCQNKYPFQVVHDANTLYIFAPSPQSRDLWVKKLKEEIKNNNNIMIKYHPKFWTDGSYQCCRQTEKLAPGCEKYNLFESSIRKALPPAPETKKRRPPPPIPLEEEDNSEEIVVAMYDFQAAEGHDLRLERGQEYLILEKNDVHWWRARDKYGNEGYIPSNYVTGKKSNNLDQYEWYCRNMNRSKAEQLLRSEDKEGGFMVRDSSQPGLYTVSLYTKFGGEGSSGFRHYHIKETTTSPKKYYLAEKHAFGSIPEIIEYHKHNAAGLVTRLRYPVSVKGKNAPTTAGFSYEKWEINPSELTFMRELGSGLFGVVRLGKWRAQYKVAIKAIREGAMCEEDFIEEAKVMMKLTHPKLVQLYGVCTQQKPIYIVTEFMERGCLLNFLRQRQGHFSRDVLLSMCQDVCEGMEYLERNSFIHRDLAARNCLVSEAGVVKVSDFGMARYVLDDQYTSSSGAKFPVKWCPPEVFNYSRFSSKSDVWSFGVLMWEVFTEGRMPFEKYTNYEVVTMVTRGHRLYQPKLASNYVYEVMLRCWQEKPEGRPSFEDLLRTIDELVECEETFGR
UniProt Q6PHR2: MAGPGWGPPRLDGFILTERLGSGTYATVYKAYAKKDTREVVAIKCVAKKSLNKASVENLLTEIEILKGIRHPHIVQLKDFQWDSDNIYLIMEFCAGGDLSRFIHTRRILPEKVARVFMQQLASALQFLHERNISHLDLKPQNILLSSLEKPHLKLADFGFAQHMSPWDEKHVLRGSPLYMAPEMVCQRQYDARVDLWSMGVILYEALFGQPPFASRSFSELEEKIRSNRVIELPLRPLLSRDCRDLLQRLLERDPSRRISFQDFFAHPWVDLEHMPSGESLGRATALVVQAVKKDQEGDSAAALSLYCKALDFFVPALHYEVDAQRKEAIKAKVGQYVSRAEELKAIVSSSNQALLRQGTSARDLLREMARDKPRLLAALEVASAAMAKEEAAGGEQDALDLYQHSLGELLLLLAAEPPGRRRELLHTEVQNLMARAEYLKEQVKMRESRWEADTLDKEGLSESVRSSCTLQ

Key:
Assay in all cases: number of time points (of 5) at which kinase-Nluc abundance scored as decreased, DMSO-normalised (count); higher = more persistent destabilization
Details in all cases: K562; 2-18 h
PRKCA = PRKCA (UniProt P17252)
PTK2 = PTK2 (UniProt Q05397)
PTK2B = PTK2B (UniProt Q14289)
RAF1 = RAF1 (UniProt P04049)
[1] = biological target: RAF1_S257L (clone: RAF1_mut) (UniProt P04049)
RET = RET (UniProt P07949)
[2] = biological target: RET_M918T (clone: RET_mut) (UniProt P07949)
RIOK1 = RIOK1 (UniProt Q9BRS2)
RIPK1 = RIPK1 (UniProt Q13546)
RIPK2 = RIPK2 (UniProt O43353)
ROR2 = ROR2 (UniProt Q01974)
RPS6KA1 = RPS6KA1 (UniProt Q15418)
SPHK1 = SPHK1 (UniProt Q9NYA1)
SRC = SRC (UniProt P12931)
STK24 = STK24 (UniProt Q9Y6E0)
STK38 = STK38 (UniProt Q15208)
SYK = SYK (UniProt P43405)
TEC = TEC (UniProt P42680)
TYK2 = TYK2 (UniProt P29597)
ULK3 = ULK3 (UniProt Q6PHR2)

Measured: number of time points

COc1ccc(CN2C3CC2CN(c2ccc(-c4cc(OCC(C)(C)O)cn5ncc(C#N)c45)cn2)C3)cn1 [Selpercatinib] (10 µM)
0: all assays above

OCCN(CCO)c1ccc(C(c2ccc(Cl)cc2)c2ccc(N(CCO)CCO)cc2)cc1 (10 µM)
3: RIOK1 | ULK3
1: PTK2 | RAF1 | RIPK1
2: RIPK2
0: all other assays above

COc1ccc(CCNc2ncc3c(=O)n(-c4cccc(F)c4)c(=O)[nH]c3n2)cc1OC (2 µM)
0: all assays above

COC(=O)[C@@]1(C)CC[C@]2(C(=O)O)CC[C@]3(C)C(=CC[C@@H]4[C@@]5(C)C[C@H](O)[C@H](O[C@@H]6OC[C@@H](O[C@@H]7O[C@H](CO)[C@@H](O)[C@H](O)[C@H]7O)[C@H](O)[C@H]6O)[C@@](C)(CO)[C@@H]5CC[C@]43C)[C@@H]2C1 [Esculentoside A] (10 µM)
0: all assays above

COc1ccc2c(Oc3ccc(NC(=O)c4c(C)n(CC(C)(C)O)n(-c5ccccc5)c4=O)cc3F)ccnc2c1 (2.5 µM)
3: [1] | ULK3
1: RAF1 | RIPK1 | RIPK2
0: all other assays above

CC(C)(O)[C@@H]1CC[C@](C)([C@H]2[C@@H](O)C[C@@]3(C)[C@@H]4C[C@H](O[C@@H]5O[C@H](CO)[C@@H](O)[C@H](O)[C@H]5O)[C@H]5C(C)(C)[C@@H](O[C@@H]6OC[C@@H](O)[C@H](O)[C@H]6O[C@@H]6O[C@H](CO)[C@@H](O)[C@H](O)[C@H]6O)CC[C@@]56C[C@@]46CC[C@]23C)O1 [Astragaloside VI] (10 µM)
0: all assays above

CC(C)(C)C(=O)N1N=CC[C@H]1c1ccccc1 (10 µM)
0: all assays above

Oc1ccccc1C(=S)N1CCCC1 (10 µM)
0: all assays above

CC1(COc2ccc3c(c2)ncn3-c2ccc3cccc(N4CCC(N)CC4)c3n2)COC1 [Crenolanib] (2.5 µM)
4: ULK3
1: RIOK1
3: [1]
0: all other assays above

c1cc(-c2cnn3cc(-c4ccc(N5CCNCC5)cc4)cnc23)c2cccnc2c1 (2.5 µM)
2: PTK2 | RIPK2
0: all other assays above

CCn1nc(C2CCN(C(=O)CCO)CC2)nc1-c1cnc(N)c(-c2nnc(C(C)(C)C)o2)n1 (10 µM)
0: all assays above

Fc1c(Br)cccc1Nc1ncnc2cc3c(cc12)OCCO3 (2.5 µM)
2: RAF1 | TYK2
1: PTK2 | RIOK1
0: all other assays above

CC(C)Oc1ccc(-c2cnc3c(-c4ccnc5ccccc45)cnn3c2)cc1 (10 µM)
0: all assays above

Nc1[nH]c(=O)nc2c1ncn2[C@@H]1O[C@H](CO)[C@@H](O)[C@H]1O [Crotonoside] (10 µM)
0: all assays above

Random excerpt: 2 records from the list, in no set order.
c1cc(-c2cnn3cc(-c4ccc(N5CCNCC5)cc4)cnc23)c2cccnc2c1 (2.5 µM)
2: PTK2 | RIPK2
0: all other assays above

Fc1c(Br)cccc1Nc1ncnc2cc3c(cc12)OCCO3 (2.5 µM)
2: RAF1 | TYK2
1: PTK2 | RIOK1
0: all other assays above

Remaining list, next part

CC(C)c1cnn2c(NCc3ccccc3-n3cccn3)nc(OC3CCCNC3)nc12 (stereo not given) (2.5 µM)
1: [1]
2: PTK2
4: RIPK1
0: all other assays above

c1ccc(-c2nn3c(c2-c2ccnc4cc(OCCN5CCOCC5)ccc24)CCC3)nc1 (10 µM)
4: RIPK2
0: all other assays above

COc1cc(C(=O)N2CCC(N3CCN(C)CC3)CC2)ccc1Nc1ncc2c(n1)N(C)c1ccccc1C(=O)N2C (10 µM)
0: all assays above

CCc1c(C)sc(NC(=S)NC(=O)c2ccc(Cl)cc2)c1C(N)=O (10 µM)
0: all assays above

C=CS(=O)(=O)c1ccc(Nc2nc(OCC3CCCCC3)c3[nH]cnc3n2)cc1 (2.5 µM)
3: [1] | RIPK1
2: TYK2
0: all other assays above

O=C(O)c1ccccc1Nc1cccc(C(F)(F)F)c1 [Flufenamic acid] (10 µM)
1: ROR2
0: all other assays above

C=CC(=O)N1CCC[C@@H](n2nc(C(=O)Nc3ccc(CC(=O)N(C)C)c(C)c3C)c3c(N)ncnc32)C1 (10 µM)
0: all assays above

C=CC(=O)N1CCC(Oc2cc3c(Nc4ccc(Cl)c(Cl)c4F)ncnc3cc2OC)CC1 [Poziotinib] (2.5 µM)
0: all assays above

CC(C)C[C@H](NC(=O)[C@H](CCCCN)NC(=O)[C@H](CO)NC(=O)[C@@H](N)CC(C)C)C(N)=O [LSKL, Inhibitor of Thrombospondin (TSP-1) (TFA)] (10 µM)
0: all assays above

COc1ncc(Nc2ncc([C@@H](C)N3CCN(S(C)(=O)=O)CC3)cc2-c2nc(C)nc(N)n2)cc1F (10 µM)
0: all assays above
